Results are given in words; binding and its absence hold for the method and conditions named. In cells and extracts the contact can be indirect. Some results given as binding are weak or reduced against the parent protein; the word gives no strength.
Biological target: Flag tagged MCM8 (UniProt Q9UJA3)
Assay: co-IP; 1.0 mg protein of MNNG/HOS lysate (Control or MCM8-Flag lentivirus) incubated with antibody at 4 °C overnight, then 20 μL beads at 4 °C for 2 h; precipitated with Flag antibody, blotted with CTGF antibody

By UniProt entry, the sequences of proteins in these tests, tags left out. Residues count along the entry.
UniProt Q9UJA3: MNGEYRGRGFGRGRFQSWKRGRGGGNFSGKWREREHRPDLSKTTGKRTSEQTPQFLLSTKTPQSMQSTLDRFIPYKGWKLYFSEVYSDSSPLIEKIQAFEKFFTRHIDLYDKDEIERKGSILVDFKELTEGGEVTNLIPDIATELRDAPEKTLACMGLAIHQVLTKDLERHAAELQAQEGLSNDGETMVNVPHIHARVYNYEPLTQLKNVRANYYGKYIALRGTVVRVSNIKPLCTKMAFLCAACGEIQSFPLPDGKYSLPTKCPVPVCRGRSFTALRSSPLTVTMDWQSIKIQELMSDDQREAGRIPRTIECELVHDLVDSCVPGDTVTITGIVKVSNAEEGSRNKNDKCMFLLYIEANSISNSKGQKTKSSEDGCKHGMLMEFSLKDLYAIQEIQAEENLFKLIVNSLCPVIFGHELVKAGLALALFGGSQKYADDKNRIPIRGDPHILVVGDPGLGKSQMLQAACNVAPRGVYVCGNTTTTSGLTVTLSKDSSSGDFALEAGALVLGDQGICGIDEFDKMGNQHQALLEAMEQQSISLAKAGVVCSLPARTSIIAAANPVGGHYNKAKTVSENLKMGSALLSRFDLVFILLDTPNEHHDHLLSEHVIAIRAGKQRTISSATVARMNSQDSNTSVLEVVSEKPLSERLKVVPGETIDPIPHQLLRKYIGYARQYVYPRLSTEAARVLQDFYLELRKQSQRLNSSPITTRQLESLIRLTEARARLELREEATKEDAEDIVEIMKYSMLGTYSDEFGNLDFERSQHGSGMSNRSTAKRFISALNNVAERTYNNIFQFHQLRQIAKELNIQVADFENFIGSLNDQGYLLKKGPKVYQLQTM
UniProt P29279, residues 27-349: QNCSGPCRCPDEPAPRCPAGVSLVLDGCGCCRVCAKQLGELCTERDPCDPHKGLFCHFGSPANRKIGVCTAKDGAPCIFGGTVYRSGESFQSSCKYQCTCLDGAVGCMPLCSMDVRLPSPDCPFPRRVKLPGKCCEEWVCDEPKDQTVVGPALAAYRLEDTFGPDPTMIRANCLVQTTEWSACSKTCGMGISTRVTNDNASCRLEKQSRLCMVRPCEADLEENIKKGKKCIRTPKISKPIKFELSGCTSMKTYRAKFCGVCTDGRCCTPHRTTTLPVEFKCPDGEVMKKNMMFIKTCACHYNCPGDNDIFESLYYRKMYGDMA

binding: binds
Substance: connective tissue growth factor (CTGF) (from UniProt P29279 27-349)

Reference: paper PMC8027380
